{"source": "PubChem BioAssay AID504791 – Drosophila RNAi Screening Center – 2011", "aim": "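Genes of the fly required for silencing by miRNA, siRNA or endo-siRNA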 (primary screen)", "system": "Drosophila S2-derived reporter cells", "knock-down reagent": "long dsRNA against Drosophila genes, about 150-250 ng dsRNA per well (siRNA assay); about 80-120 ng (miRNA assay)", "time to read-out": "about 5 days (siRNA assay); about 4 days (miRNA assay)", "challenge": "copper sulfate induction of reporters: 25 µM (siRNA assay); 200 mM stated (miRNA assay), 1-2 days before reading", "measured": "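Dual luciferase assay: Renilla to firefly signal ratio in each well, scaled to the mean ratio of its plate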", "units": "stable assay Renilla, run 1 in luminescence; stable assay firefly, run 1 in luminescence", "active means": "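First-pass picks had plate-scaled ratios over 1.5 for the siRNA assay, over 1.6 for the miRNA assay, or under 0.6; two distinct dsRNAs had to score alike on retest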", "note": "The deposit covers about 23,000 reagents; this is a random part of those that have a named target and a result. In the full data, 199 (0.86%) got an active call. 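Plate-scaled ratios behind the calls are not deposited; printed light signals are raw; many rows marked increased or decreased are still called inactive.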 A number with no mark means an inactive call. Not given: the direction of the score."}
{"Gene":"CG11180","PubChem SID":"SID104185847","stable assay Renilla, run 1":9367,"stable assay firefly, run 1":3.73e5}
{"Gene":"Obp58b (Odorant-binding protein 58b)","PubChem SID":"SID104183953","stable assay Renilla, run 1":6351,"stable assay firefly, run 1":4.13e5}
{"Gene":"CG32487","PubChem SID":"SID104201414","stable assay Renilla, run 1":8552,"stable assay firefly, run 1":4.47e5}
{"Gene":"CG34427","PubChem SID":"SID104189770","stable assay Renilla, run 1":6011,"stable assay firefly, run 1":3.97e5}
{"Gene":"Burs (Bursicon)","PubChem SID":"SID104194387","stable assay Renilla, run 1":8175,"stable assay firefly, run 1":3.68e5}
{"Gene":"sbr (small bristles)","PubChem SID":"SID104199562","stable assay Renilla, run 1":5028,"stable assay firefly, run 1":4.14e5}
{"Gene":"sbr (small bristles)","PubChem SID":"SID104200160","miRNA reporter change":"reporter ratio lowered past the hit cutoff (active)","stable assay Renilla, run 1":5416,"stable assay firefly, run 1":3.56e5}
{"Gene":"sbr (small bristles)","PubChem SID":"SID104208347","miRNA reporter change":"reporter ratio lowered past the hit cutoff (active)"}
{"Gene":"MESR6 (Misexpression suppressor of ras 6)","PubChem SID":"SID104190512","stable assay Renilla, run 1":8044,"stable assay firefly, run 1":3.07e5}
{"Gene":"CG18493","PubChem SID":"SID104195126","stable assay Renilla, run 1":8630,"stable assay firefly, run 1":3.66e5}
{"Gene":"Ist1","PubChem SID":"SID104189489","stable assay Renilla, run 1":7829,"stable assay firefly, run 1":5.70e5}
{"Gene":"CG32181","PubChem SID":"SID104202043","stable assay Renilla, run 1":3104,"stable assay firefly, run 1":3.01e5}
{"Gene":"cerv (cervantes)","PubChem SID":"SID104199473","stable assay Renilla, run 1":5506,"stable assay firefly, run 1":3.50e5}
{"Gene":"cerv (cervantes)","PubChem SID":"SID104203866","miRNA reporter change":"reporter ratio lowered past the hit cutoff"}
{"Gene":"Hsp67Ba (Heat shock gene 67Ba)","PubChem SID":"SID104190983","stable assay Renilla, run 1":5211,"stable assay firefly, run 1":3.21e5}
{"Gene":"SCaMC","PubChem SID":"SID104190085","stable assay Renilla, run 1":7415,"stable assay firefly, run 1":3.87e5}
{"Gene":"SCaMC","PubChem SID":"SID104190207","stable assay Renilla, run 1":6752,"stable assay firefly, run 1":4.68e5}
{"Gene":"CG9588","PubChem SID":"SID104196296","stable assay Renilla, run 1":7351,"stable assay firefly, run 1":3.39e5}
{"Gene":"mRpS9 (mitochondrial ribosomal protein S9)","PubChem SID":"SID104192437","stable assay Renilla, run 1":4351,"stable assay firefly, run 1":3.85e5}
{"Gene":"mRpS9 (mitochondrial ribosomal protein S9)","PubChem SID":"SID104195248","stable assay Renilla, run 1":4407,"stable assay firefly, run 1":3.44e5}
{"Gene":"MED10 (Mediator complex subunit 10)","PubChem SID":"SID104190266","stable assay Renilla, run 1":5570,"stable assay firefly, run 1":2.64e5}
{"Gene":"RpS3A (Ribosomal protein S3A)","PubChem SID":"SID104196960","stable assay Renilla, run 1":4843,"stable assay firefly, run 1":3.50e5}
{"Gene":"Rilpl (Rab interacting lysosomal protein like)","PubChem SID":"SID104198286","stable assay Renilla, run 1":7762,"stable assay firefly, run 1":5.73e5}
{"Gene":"CG17233","PubChem SID":"SID104190051","stable assay Renilla, run 1":6135,"stable assay firefly, run 1":2.85e5}
{"Gene":"if (inflated)","PubChem SID":"SID104200133","stable assay Renilla, run 1":4834,"stable assay firefly, run 1":4.73e5}
{"Gene":"CG15747","PubChem SID":"SID104199505","stable assay Renilla, run 1":8083,"stable assay firefly, run 1":4.30e5}
{"Gene":"Klp98A (Kinesin-like protein at 98A)","PubChem SID":"SID104196516","stable assay Renilla, run 1":6303,"stable assay firefly, run 1":5.58e5}
{"Gene":"Klp98A (Kinesin-like protein at 98A)","PubChem SID":"SID104201482","stable assay Renilla, run 1":10339,"stable assay firefly, run 1":5.99e5}

Just “stable assay firefly, run 1”, for 3 of the entries above:
CG34427 [SID104189770] = 3.97e5
Burs (Bursicon) [SID104194387] = 3.68e5
sbr (small bristles) [SID104199562] = 4.14e5
